Source: doi:10.1371/journal.pone.0140310, primary screening data, rounded.

All values are for the listed drug together with A-769662 (10 µM): N#Cc1c(O)c2c(-c3ccc(-c4ccccc4O)cc3)csc2[nH]c1=O

Drug key:
JZL184, 5 µM: O=C(Oc1ccc([N+](=O)[O-])cc1)N1CCC(C(O)(c2ccc3c(c2)OCO3)c2ccc3c(c2)OCO3)CC1
sorafenib, 2 µM: CNC(=O)c1cc(Oc2ccc(NC(=O)Nc3ccc(Cl)c(C(F)(F)F)c3)cc2)ccn1
etoposide, 0.1 µM: COc1cc([C@@H]2c3cc4c(cc3[C@@H](O[C@@H]3O[C@@H]5CO[C@@H](C)O[C@H]5[C@H](O)[C@H]3O)[C@H]3COC(=O)[C@H]23)OCO4)cc(OC)c1O
gemcitabine, 0.002 µM: Nc1ccn([C@@H]2O[C@H](CO)[C@@H](O)C2(F)F)c(=O)n1
vismodegib, 5 µM: CS(=O)(=O)c1ccc(C(=O)Nc2ccc(Cl)c(-c3ccccn3)c2)c(Cl)c1
dovitinib, 0.5 µM: CN1CCN(c2ccc3nc(-c4c(N)c5c(F)cccc5[nH]c4=O)[nH]c3c2)CC1
GW0742, 10 µM: Cc1cc(SCc2sc(-c3ccc(C(F)(F)F)c(F)c3)nc2C)ccc1OCC(=O)O
bortezomib, 0.005 µM: CC(C)C[C@H](NC(=O)[C@H](Cc1ccccc1)NC(=O)c1cnccn1)B(O)O
lestaurtinib, 0.02 µM: C[C@]12O[C@H](C[C@]1(O)CO)n1c3ccccc3c3c4c(c5c6ccccc6n2c5c31)CNC4=O
enzastaurin, 4 µM: Cn1cc(C2=C(c3cn(C4CCN(Cc5ccccn5)CC4)c4ccccc34)C(=O)NC2=O)c2ccccc21
NVP-BEZ235, 0.02 µM: Cn1c(=O)n(-c2ccc(C(C)(C)C#N)cc2)c2c3cc(-c4cnc5ccccc5c4)ccc3ncc21
ruxolitinib, 5 µM: N#CC[C@H](C1CCCC1)n1cc(-c2ncnc3[nH]ccc23)cn1
MK-1775, 0.1 µM: C=CCn1c(=O)c2cnc(Nc3ccc(N4CCN(C)CC4)cc3)nc2n1-c1cccc(C(C)(C)O)n1

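Human melanoma cell lines in 1,536-well plates were treated with a pair of drugs for 72 h, then fixed, stained and imaged. Each value is the count of nuclei relative to DMSO-treated wells, in %, so that 100 equals the control. Concentrations were fixed for each drug; these are the higher of two levels. No replicate spread is given; individual values may be noisy.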
Only some of the drugs and lines screened are listed, without regard to their results.

| Second drug | COLO 792 |
|---|---|
| GW0742 | 95.2 |
| bortezomib | 35.6 |
| NVP-BEZ235 | 70.2 |
| ruxolitinib | 96.4 |
| lestaurtinib | 76.1 |
| etoposide | 107 |
| sorafenib | 97.0 |
| enzastaurin | 96.3 |
| vismodegib | 103 |
| JZL184 | 105 |
| MK-1775 | 90.0 |
| gemcitabine | 64.7 |
| dovitinib | 70.8 |

Some entries from above, unchanged:

{"second drug": "etoposide", "COLO 792": 107}
{"second drug": "dovitinib", "COLO 792": 70.8}